# Source: PubChem BioAssay AID1347076 (National Center for Advancing Translational Sciences (NCATS), 2019)
# Screen size: about 400,000 compounds; about 13,000 (3.2%) were called active. The inconclusive results got no clear call from the source; some entries with a clear call stand among them for comparison. Calls come from the whole dose curve; as a rule, active = well fitted cell-killing curve with a large enough effect; inconclusive = small, poorly fitted or top-dose-only effect, or effect the other way; inactive = flat fitted curve, though single readings scatter. Where the call is inconclusive, the potency comes from a doubtful curve fit.
# Assay: qHTS assay for MDR1-selective chemotherapeutics: Primary screen using the drug-selected MDR subline cells KB-V1; note: nearly all actives have a fitted effect of over 60% in size
# Details: KB-V1 MDR cells viability, CellTiter-Glo, 72 h; activity change, negative = cytotoxicity: at 46.1 µM (top of the series)
# Outline: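 In this primary screen, KB-V1 cells overexpressing P-gp are incubated with library compounds (lowest to highest concentration) for 72 h at 37 degrees C before a luminescent ATP viability read.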
# % is set by controls: 0 for no effect and ±100 for the full control effect; potency is the fitted concentration of half-maximal effect.
SMILES,Potency,"activity change, negative = cytotoxicity"
CCn1c(O)c(N=NC(=O)CNC(=O)c2ccco2)c2ccccc21,inactive,
C/C=C(/C)C(=O)O[C@@H]1c2c(ccc3ccc(=O)oc23)OC(C)(C)[C@@H]1OC(=O)/C(C)=C\C,"inconclusive: 20.6 µM [cytotoxic, single point]",
COc1cc(NC(=S)NC(=O)C(C)C)ccc1NC(=O)c1cc2ccccc2o1,inactive,
O=C(Nc1ccccc1)c1nc2ccccc2s1,"inconclusive: 20.6 µM [cytotoxic, single point]",
CCOc1ccc(N2C(=O)CC(Cc3cc(C)cc(C)c3)C2=O)cc1 (stereo not given),inactive,
CC(=O)c1ccc2c(c1)Cc1cc(C(C)=O)ccc1-2,"inconclusive: 16.4 µM [cytotoxic, single point]",
OCCN1CCN(c2ncnc3c2c(-c2ccccc2)cn3-c2ccc(F)cc2)CC1,inactive,
Cc1ccccc1CCNC(=O)C1CCN(c2nc3ccccc3nc2C(F)(F)F)CC1,"inconclusive: 16.4 µM [cytotoxic, partial curve]",
CN(C)c1ccc(/C=C/c2c(Br)cnc3ccccc23)cc1,"inconclusive: 14.6 µM [cytotoxic, single point]",
NNC(=O)CCc1c[nH]c2ccccc12,"inconclusive: 23.1 µM [rising, partial curve, poor fit]",
COC(=O)c1cc(NC(=O)c2sc3ncn(Cc4cccc(F)c4)c(=O)c3c2C)cc(C(=O)OC)c1,inactive,
COCCN(Cc1cn(C)nc1-c1ccccc1F)C(C)C,"inconclusive: 0.184 µM [cytotoxic, full curve]",
COc1ccccc1NC(=O)c1ccc(C)s1,"inconclusive: 16.4 µM [cytotoxic, single point]",
CCOC(=O)c1nn(-c2ccc(C)cc2)cc1C(=O)c1ccccc1,"inconclusive: 10 µM [cytotoxic, partial curve, poor fit]",
NNC(=O)c1oc2nc(-c3ccccc3)cc(-c3ccccc3)c2c1N,inactive,
O=C(NCc1cccs1)c1cccc(Nc2nc3ccc(Br)cc3[nH]2)c1,"inconclusive: 3.26 µM [rising, full curve, poor fit]",
CC(=O)Oc1ccc(/C=N/NC(=O)CCSc2ccccc2)cc1,"inconclusive: 29.1 µM [rising, single point]",
CCn1c(SCC(=O)Nc2ccc3c(c2)OCCO3)nc2c(c1=O)SC(C)C2 (stereo not given),active: 4.11 µM,
CSC1=NCCN1C(=O)c1ccc(S(=O)(=O)N2CCCCC2)cc1,"inconclusive: 0.291 µM [cytotoxic, full curve]",
C#CCOCCOCCOCCNc1nc(N2CCN(C(=O)Cn3cc(CCCCN)nn3)CC2)nc(N2CCN(C(=O)Cn3cc(CC(C)O)nn3)CC2)n1 (stereo not given),"inconclusive: 18.4 µM [rising, single point]",
O=C(NCc1ccccc1Cl)c1cc(=O)[nH]c2ccc(S(=O)(=O)N3CCCCC3)cc12,"inconclusive: 13 µM [rising, partial curve, poor fit]",
CC(=O)Nc1ccc(Nc2cc(C)nc(Nc3ccc(NC(C)=O)cc3)n2)cc1,inactive,
COc1ccc(C2Nc3ccccc3C(=O)N2Cc2ccco2)cc1COc1ccccc1F (stereo not given),"inconclusive: 5.8 µM [cytotoxic, partial curve]",
CC(C)n1cc(/C=C2/NC(=O)N(c3cccc(Cl)c3)C2=O)c2ccccc21,"inconclusive: 18.4 µM [cytotoxic, single point]",
CCNc1nc(NCC)nc(Oc2ccc(C(=O)OC)cc2)n1,inactive,

SMILES,Potency,"activity change, negative = cytotoxicity"
Cc1ccc(-c2n[nH]c(=O)c3ccccc23)cc1N,"inconclusive: 20.6 µM [cytotoxic, single point]",
CN(C)c1nc(N(C)C)nc(N(C#N)Cc2ccc(Cl)cc2)n1,inactive,
Cc1ccc(S(=O)(=O)N2c3ccccc3-c3c(ssc3=S)C2(C)C)cc1,active: 20.6 µM,
COC(=O)c1cc(=O)n(-c2ccc(F)cc2)c(=Nc2ccc(F)cc2)s1,"inconclusive: 29.1 µM [cytotoxic, single point]",
Cn1c(-c2sc3cc(C(F)(F)F)cnc3c2-c2cccs2)n[nH]c1=S,inactive,
Cc1cc(C(=O)Nc2c(F)cc(F)cc2Br)cs1,"inconclusive: 13 µM [rising, partial curve, poor fit]",
Cn1c(=O)cc(SCC(=O)N2CCN(c3ccccc3F)CC2)c2cc(Cl)ccc21,inactive,
COc1ccc(/C(O)=C2/C(=O)C(=O)N(c3ccccn3)C2c2ccc(F)cc2)cc1 (stereo not given),"inconclusive: 25.9 µM [cytotoxic, partial curve, poor fit]",
CCOc1cc(CN2CCN(CCc3ccccc3)C(CCO)C2)ccc1OC (stereo not given),"inconclusive: 4.61 µM [cytotoxic, full curve]",
CCOc1cc(N2CCOCC2)c(OCC)cc1NC(=O)Cn1[nH]c(=O)c2ccccc2c1=O,"inconclusive: 1.46 µM [cytotoxic, full curve]",
O=C(c1ccccc1)c1ccc2nc(N3CCN(C(=O)c4ccco4)CC3)c3nncn3c2c1,inactive,
c1csc(-c2noc(CN3CCc4sccc4C3)n2)c1,"inconclusive: 29.1 µM [cytotoxic, single point]",
CCN1C(C)=C(C)S/C1=C1\SC(=S)N(NC(C)=O)C1=O,"inconclusive: 7.31 µM [rising, partial curve, poor fit]",
CCCNC(=O)C1CCN(S(=O)(=O)c2ccc3nc4c(c(C(=O)O)c3c2)CCCCC4)CC1,"inconclusive: 16.4 µM [rising, single point]",
O=C(O)C1Sc2[nH]c(=O)sc2C2c3cc(Cl)ccc3OC(=O)C12 (stereo not given),inactive,
CCN(Cc1ccccc1)C(=S)Nc1cc(C(=O)OC)ccc1C(=O)OC,active: 14.6 µM,
Cc1ccc(C)c(N(CC(=O)N2CCCC2)S(C)(=O)=O)c1,,inconclusive: -1.85%
CCC1=NN(C(=O)c2cccnc2)C(O)(C(F)(F)F)C1 (stereo not given),inactive,
COc1cc2c(cc1OC)/C(=C/C(C)=O)OC2,inactive,
COc1ccccc1N1CCN(C(=S)NC(=O)c2ccc([N+](=O)[O-])cc2)CC1,"inconclusive: 18.4 µM [cytotoxic, single point]",
CCN1CCC(=NNC(=O)c2ccc(C)c([N+](=O)[O-])c2)CC1,"inconclusive: 29.1 µM [rising, partial curve, poor fit]",
CCN(CC(=O)Nc1cc(Cl)ccc1C)C(=O)Cn1c(=O)cnc2ccccc21,"inconclusive: 13 µM [cytotoxic, single point]",
O=C(CSc1ncc(-c2ccccc2)[nH]1)Nc1cccc(C(F)(F)F)c1,inactive,
CCONC(=O)Nc1ccccc1,inactive,
O=C1c2ccccc2C(=O)N1CC#CCN1CCN(C2CCCCC2)CC1,inactive,

SMILES,Potency,"activity change, negative = cytotoxicity"
CC(O)CNc1cc(N)c([N+](=O)[O-])cc1[N+](=O)[O-] (stereo not given),"inconclusive: 7.31 µM [cytotoxic, partial curve, poor fit]",
Cc1ccc(F)cc1NC(=O)/C=C/c1ccc(S(=O)(=O)N2CCOCC2)cc1,inactive,
O=C(Nc1ccc(Cn2cccn2)cc1)c1ccc(COc2ccc(Br)cc2)cc1,inactive,
CC(C)(C)NC(=O)/C(=C\c1ccc(Br)cc1)NC(=O)c1cccs1,"inconclusive: 20.6 µM [cytotoxic, partial curve, poor fit]",
Cc1ccccc1-c1nc(CS(=O)(=O)CC(=O)Nc2cc(Cl)cc(Cl)c2)c(C)o1,inactive,
O=c1cc(N2CCCCC2)nc2n1CCCS2,"inconclusive: 35.5 µM [cytotoxic, single point]",
Cc1cc(NC(=O)CSC2=NS(=O)(=O)c3ccccc3N2)no1,inactive,
COc1ccc(C2CC(c3ccccc3OC(C)=O)=NN2C(C)=O)cc1 (stereo not given),"inconclusive: 9.2 µM [cytotoxic, partial curve, poor fit]",
S=C(Nc1ccc(Cl)cc1)Nc1cccc2cnccc12,inactive,
CC1=Nc2cc(C(=O)NCCCOC(C)C)ccc2Sc2ccc(C)cc21,active: 4.11 µM,
O=C(C1CCCN(S(=O)(=O)c2ccc(Br)cc2)C1)N1CCOCC1 (stereo not given),"inconclusive: 25.9 µM [cytotoxic, single point]",
COc1cccc(CNC(=O)[C@@H]2CCCN2C(=O)[C@H]2CCCCN2C(=O)c2ccccc2C)c1,inactive,
O=S1(=O)C=C(SCc2ccc(Cl)c(Cl)c2)Nc2ccccc21,active: 14.6 µM,
CC(=O)c1c(C(C)=O)c(C)n(Cc2ccc3c(c2)OCO3)c1C,active: 2.59 µM,
CCN(CC)c1ccc(NC(=O)c2ccco2)cc1,"inconclusive: 18.4 µM [cytotoxic, single point]",
Cn1c(NC(=O)C[n+]2cc(-c3ccc(Cl)cc3)n3c2CCC3)cc(=O)n(C)c1=O,"inconclusive: 29.1 µM [rising, single point]",
CCOC(=O)c1ccc(NC2c3ccccc3C(=O)N2c2ccc(C)cn2)cc1 (stereo not given),inactive,
COCCn1c(SCC(=O)Nc2cccc(C)n2)nnc1-c1ccco1,inactive,
Cn1c(CNC(=O)c2ccc(Cl)cc2)nnc1SCC(=O)NC1=NCCS1,inactive,
COc1ccccc1NC(=O)c1c(NC(=O)Cc2ccccc2)sc2c1CCC(C(C)(C)C)C2 (stereo not given),"inconclusive: 23.1 µM [rising, partial curve, poor fit]",
CCOC(=O)c1cn2nc(-c3ccc(OC)cc3)cc2nc1C1CCN(C(=O)OC(C)(C)C)CC1,active: 6.51 µM,
CCOC(=O)NC(=O)C(=CNc1ccccc1C)C(=O)NC(=O)OCC,inactive,
COc1cc(CN2CCN(C(O)(c3ccccc3)c3ccccc3)CC2)cc(OC)c1OC,inactive,
Cc1cccc(C)c1C(=NCCN(C)C)c1ccccc1,inactive,
CCCCc1c(-c2ccccc2OC)ncn1CCc1ccccc1,active: 11.6 µM,

# Sorted by number of heavy atoms (low to high): four of the compounds above.
SMILES,Potency,"activity change, negative = cytotoxicity"
S=C(Nc1ccc(Cl)cc1)Nc1cccc2cnccc12,inactive,
CC(=O)Nc1ccc(Nc2cc(C)nc(Nc3ccc(NC(C)=O)cc3)n2)cc1,inactive,
Cc1ccccc1CCNC(=O)C1CCN(c2nc3ccccc3nc2C(F)(F)F)CC1,"inconclusive: 16.4 µM [cytotoxic, partial curve]",
COc1cccc(CNC(=O)[C@@H]2CCCN2C(=O)[C@H]2CCCCN2C(=O)c2ccccc2C)c1,inactive,
